Source: the supplement of paper PMC12823440, “Inhibitors supercharge kinase turnover through native proteolytic circuits” (Nature, 2025)
This is one part of the list. Hit calls seldom repeat between salt and free forms of one compound.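 Kinases were expressed as nanoluciferase fusions in K562 cells and luminescence was read every 4 h between 2 and 18 h as percent of control, DMSO set to 100% and a positive control to 0%. A time point counts as decreased when the signal drops significantly (2 sigma). The hit call is the authors' own, does not follow from the count of time points alone, and its rule is not shown.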

Sequences of proteins named here, by UniProt entry; tags and fusion partners are left off. A change or cut given only in a name is not applied to a line headed by its entry.
UniProt O15530: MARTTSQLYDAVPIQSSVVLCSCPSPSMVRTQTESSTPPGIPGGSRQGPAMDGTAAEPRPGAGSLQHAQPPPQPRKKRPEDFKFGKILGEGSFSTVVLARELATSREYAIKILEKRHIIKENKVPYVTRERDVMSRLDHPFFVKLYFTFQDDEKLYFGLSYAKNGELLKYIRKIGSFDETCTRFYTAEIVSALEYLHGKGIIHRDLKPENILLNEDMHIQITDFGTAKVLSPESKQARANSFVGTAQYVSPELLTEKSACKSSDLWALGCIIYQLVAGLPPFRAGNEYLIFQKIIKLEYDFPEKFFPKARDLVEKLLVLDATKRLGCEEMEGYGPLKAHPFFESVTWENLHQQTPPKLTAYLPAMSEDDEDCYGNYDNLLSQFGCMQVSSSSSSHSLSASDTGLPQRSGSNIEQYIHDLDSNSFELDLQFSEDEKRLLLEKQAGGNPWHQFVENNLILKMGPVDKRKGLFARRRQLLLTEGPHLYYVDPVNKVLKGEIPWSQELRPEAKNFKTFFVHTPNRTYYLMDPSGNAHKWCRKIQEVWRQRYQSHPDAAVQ
UniProt Q9UBF8: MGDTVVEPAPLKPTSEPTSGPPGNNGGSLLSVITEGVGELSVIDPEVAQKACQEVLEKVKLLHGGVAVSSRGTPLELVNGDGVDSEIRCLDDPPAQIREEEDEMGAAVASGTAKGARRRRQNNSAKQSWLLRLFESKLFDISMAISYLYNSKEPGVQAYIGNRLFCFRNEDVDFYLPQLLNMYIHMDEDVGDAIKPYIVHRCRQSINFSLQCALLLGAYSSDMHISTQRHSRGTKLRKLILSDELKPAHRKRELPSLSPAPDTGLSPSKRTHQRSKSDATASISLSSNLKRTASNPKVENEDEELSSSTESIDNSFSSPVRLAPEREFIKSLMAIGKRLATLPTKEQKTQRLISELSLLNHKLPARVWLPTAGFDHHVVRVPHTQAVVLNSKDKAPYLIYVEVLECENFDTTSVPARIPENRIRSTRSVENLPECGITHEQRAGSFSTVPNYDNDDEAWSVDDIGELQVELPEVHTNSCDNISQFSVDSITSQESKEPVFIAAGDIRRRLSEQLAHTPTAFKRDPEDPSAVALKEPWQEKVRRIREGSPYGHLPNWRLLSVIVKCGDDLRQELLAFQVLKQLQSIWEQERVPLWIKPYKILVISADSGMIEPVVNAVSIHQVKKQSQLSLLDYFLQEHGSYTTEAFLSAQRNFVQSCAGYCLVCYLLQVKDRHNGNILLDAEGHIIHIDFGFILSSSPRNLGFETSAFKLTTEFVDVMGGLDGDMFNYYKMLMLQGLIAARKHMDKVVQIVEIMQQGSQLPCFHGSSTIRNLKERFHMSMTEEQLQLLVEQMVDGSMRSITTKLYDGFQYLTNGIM
UniProt P53350, whole entry: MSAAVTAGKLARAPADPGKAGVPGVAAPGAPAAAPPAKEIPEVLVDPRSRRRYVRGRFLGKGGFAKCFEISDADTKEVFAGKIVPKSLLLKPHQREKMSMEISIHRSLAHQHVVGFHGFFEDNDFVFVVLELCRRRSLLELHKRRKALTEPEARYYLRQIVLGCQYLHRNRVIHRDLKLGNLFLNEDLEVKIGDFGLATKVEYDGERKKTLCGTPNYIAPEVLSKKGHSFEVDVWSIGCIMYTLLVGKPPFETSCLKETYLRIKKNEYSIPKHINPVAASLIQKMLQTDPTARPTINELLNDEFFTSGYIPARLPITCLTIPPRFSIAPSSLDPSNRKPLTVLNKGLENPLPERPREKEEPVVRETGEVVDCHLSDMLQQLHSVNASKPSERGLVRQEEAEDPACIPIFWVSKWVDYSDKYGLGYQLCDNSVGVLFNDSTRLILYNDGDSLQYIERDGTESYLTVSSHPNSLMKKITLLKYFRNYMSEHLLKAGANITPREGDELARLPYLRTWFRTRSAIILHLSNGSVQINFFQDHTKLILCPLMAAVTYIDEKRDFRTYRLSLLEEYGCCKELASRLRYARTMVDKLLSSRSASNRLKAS
UniProt P07949, whole entry, looked up: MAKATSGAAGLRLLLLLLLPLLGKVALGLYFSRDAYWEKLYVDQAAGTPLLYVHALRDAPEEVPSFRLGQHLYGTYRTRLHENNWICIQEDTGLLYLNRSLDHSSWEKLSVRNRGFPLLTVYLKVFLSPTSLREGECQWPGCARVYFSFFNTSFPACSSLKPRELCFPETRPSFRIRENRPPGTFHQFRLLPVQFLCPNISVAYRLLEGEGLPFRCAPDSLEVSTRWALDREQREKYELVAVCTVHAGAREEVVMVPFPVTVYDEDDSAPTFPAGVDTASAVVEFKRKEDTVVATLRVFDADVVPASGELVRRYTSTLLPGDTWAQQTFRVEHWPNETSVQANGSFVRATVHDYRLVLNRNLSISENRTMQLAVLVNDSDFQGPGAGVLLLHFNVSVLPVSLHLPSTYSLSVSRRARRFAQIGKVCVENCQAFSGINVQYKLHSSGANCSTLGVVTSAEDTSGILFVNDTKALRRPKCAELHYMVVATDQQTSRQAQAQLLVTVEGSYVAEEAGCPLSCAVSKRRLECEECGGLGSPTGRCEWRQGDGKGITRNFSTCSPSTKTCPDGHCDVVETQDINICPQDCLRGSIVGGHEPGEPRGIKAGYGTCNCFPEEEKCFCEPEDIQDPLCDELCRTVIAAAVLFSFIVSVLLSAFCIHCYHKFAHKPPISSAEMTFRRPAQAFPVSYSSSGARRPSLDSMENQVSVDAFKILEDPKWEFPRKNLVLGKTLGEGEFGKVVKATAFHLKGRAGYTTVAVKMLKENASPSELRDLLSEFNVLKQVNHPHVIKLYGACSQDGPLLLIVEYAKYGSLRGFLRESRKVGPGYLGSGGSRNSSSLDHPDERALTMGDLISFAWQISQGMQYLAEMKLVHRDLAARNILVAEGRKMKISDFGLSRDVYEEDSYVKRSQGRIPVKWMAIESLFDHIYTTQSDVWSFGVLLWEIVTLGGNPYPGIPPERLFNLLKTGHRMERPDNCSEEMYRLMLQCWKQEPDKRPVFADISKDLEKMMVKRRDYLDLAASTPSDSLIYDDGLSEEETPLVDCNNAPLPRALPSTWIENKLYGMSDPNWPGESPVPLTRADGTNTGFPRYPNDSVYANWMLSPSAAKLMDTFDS
UniProt Q13546: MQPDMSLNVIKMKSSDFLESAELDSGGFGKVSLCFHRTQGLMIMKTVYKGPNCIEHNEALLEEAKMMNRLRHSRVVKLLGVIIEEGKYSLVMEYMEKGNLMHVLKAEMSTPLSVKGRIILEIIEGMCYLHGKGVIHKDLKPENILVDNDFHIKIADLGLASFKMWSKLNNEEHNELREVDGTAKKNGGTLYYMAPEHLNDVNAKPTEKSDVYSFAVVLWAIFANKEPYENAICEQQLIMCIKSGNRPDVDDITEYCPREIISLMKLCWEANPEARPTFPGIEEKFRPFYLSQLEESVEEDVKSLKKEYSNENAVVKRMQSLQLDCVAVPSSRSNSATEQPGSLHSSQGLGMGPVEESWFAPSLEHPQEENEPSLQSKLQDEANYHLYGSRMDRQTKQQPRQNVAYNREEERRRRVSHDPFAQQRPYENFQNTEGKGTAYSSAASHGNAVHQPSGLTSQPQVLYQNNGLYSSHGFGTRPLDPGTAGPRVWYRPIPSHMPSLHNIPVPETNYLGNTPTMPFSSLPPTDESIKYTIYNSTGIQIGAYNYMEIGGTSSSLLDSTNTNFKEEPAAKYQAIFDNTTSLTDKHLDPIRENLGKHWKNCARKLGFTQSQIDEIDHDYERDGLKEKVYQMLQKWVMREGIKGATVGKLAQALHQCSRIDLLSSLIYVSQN
UniProt Q01974, whole entry: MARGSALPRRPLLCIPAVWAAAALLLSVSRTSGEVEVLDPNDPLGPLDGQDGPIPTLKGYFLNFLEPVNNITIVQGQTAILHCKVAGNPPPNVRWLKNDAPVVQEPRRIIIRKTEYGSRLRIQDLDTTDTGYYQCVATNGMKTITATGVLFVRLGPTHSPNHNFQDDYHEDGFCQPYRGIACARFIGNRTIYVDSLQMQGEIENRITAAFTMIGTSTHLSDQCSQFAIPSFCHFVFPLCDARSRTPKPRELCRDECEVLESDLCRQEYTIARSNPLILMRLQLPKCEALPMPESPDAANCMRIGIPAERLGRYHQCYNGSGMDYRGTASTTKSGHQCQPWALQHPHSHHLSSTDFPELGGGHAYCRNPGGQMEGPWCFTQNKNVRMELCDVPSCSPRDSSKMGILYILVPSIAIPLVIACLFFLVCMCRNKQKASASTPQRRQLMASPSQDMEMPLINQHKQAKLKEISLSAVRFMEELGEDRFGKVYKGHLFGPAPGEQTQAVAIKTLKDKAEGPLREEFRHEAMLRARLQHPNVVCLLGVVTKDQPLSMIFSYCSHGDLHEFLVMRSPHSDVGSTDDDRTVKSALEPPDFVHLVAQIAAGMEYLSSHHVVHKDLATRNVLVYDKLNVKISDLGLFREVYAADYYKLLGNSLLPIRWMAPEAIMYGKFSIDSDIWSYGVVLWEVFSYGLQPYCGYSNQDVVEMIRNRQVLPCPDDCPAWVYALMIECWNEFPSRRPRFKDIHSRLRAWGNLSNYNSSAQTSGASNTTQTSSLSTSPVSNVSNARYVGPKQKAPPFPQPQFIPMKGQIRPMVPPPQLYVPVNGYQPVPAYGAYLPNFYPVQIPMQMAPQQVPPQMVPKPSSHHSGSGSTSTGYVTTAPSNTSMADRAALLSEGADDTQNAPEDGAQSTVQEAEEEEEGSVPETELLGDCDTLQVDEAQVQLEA
UniProt Q15418, whole entry: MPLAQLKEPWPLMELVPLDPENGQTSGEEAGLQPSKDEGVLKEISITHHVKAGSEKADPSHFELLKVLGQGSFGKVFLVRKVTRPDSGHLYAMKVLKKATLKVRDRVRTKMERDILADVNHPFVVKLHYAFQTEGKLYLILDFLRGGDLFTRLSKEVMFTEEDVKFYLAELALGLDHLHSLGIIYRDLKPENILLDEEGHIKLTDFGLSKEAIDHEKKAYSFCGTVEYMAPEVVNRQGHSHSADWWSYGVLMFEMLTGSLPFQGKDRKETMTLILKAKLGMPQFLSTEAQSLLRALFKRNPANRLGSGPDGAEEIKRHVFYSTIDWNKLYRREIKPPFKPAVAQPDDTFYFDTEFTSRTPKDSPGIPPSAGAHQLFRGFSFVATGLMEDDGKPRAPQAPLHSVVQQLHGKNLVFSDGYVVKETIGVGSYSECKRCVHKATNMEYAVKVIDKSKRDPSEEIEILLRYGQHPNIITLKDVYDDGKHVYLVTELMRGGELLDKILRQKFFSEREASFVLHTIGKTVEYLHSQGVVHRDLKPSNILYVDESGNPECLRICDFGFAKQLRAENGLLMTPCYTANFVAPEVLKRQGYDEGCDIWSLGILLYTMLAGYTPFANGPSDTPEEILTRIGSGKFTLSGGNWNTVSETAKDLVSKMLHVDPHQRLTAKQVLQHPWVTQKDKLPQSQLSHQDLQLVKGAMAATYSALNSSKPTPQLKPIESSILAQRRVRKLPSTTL
UniProt Q9NYA1, whole entry: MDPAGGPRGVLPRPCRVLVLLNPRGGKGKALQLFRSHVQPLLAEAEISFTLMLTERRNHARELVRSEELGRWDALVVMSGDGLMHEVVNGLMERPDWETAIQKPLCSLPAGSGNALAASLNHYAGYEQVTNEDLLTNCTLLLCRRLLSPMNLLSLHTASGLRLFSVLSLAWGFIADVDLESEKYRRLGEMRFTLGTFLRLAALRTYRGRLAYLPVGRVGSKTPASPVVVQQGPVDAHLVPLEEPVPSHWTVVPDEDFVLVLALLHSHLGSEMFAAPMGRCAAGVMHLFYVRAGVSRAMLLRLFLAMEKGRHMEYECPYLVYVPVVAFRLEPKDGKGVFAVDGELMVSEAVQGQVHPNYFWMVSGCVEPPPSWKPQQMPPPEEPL

Key:
Assay in all cases: kinase-Nluc reporter destabilization hit call (1 = scored as downregulated) (binary); higher = compound decreases kinase abundance
Settings in all cases: K562; 2-18 h
PDPK1 = PDPK1 (UniProt O15530)
PIK4CA = PIK4CA (UniProt P42356)
PIK4CB = PIK4CB (UniProt Q9UBF8)
PLK1 = PLK1 (UniProt P53350)
PRKAA1 = PRKAA1 (UniProt Q13131)
PRKCA = PRKCA (UniProt P17252)
PTK2 = PTK2 (UniProt Q05397)
PTK2B = PTK2B (UniProt Q14289)
RAF1 = RAF1 (UniProt P04049)
[1] = molecular target: RAF1_S257L (clone: RAF1_mut) (UniProt P04049)
RET = RET (UniProt P07949)
[2] = molecular target: RET_M918T (clone: RET_mut) (UniProt P07949)
RIOK1 = RIOK1 (UniProt Q9BRS2)
RIPK1 = RIPK1 (UniProt Q13546)
RIPK2 = RIPK2 (UniProt O43353)
ROR2 = ROR2 (UniProt Q01974)
RPS6KA1 = RPS6KA1 (UniProt Q15418)
SPHK1 = SPHK1 (UniProt Q9NYA1)
SRC = SRC (UniProt P12931)
STK24 = STK24 (UniProt Q9Y6E0)

Measured: kinase-Nluc reporter destabilization hit call

O=c1[nH]c2ccccc2n1C1CCN(Cc2ccc(-c3[nH]c4cc5ncnc5cc4nc3-c3ccccc3)cc2)CC1 [AKT inhibitor VIII] (2.5 µM)
inactive: PDPK1 = 0 | PIK4CA 0 | PIK4CB 0 | PLK1 = 0 | PRKAA1 = 0 | PRKCA 0 | PTK2 = 0 | PTK2B 0 | RAF1 = 0 | [1] 0 | RET 0 | [2] 0 | RIOK1 = 0 | RIPK1 = 0 | RIPK2 = 0 | ROR2 = 0 | RPS6KA1 = 0 | SPHK1 = 0 | SRC 0 | STK24 = 0

C/C=C(/C)C(=O)O[C@H]1[C@@H]2[C@H](C)C(=O)O[C@@H]2C[C@@H](C)[C@@H]2C=CC(=O)[C@]21C [Brevilin A] (2.5 µM)
inactive: PDPK1 = 0 | PIK4CA 0 | PIK4CB 0 | PLK1 = 0 | PRKAA1 = 0 | PRKCA 0 | PTK2 = 0 | PTK2B 0 | RAF1 = 0 | [1] 0 | RET 0 | [2] 0 | RIOK1 = 0 | RIPK1 = 0 | RIPK2 = 0 | ROR2 = 0 | RPS6KA1 = 0 | SPHK1 = 0 | SRC 0 | STK24 = 0

CC(=O)c1c(O)c(C)c(O)c(Cc2c(O)c3c(c(C(=O)/C=C/c4ccccc4)c2O)OC(C)(C)C=C3)c1O [Rottlerin] (2 µM)
inactive: PDPK1 = 0 | PIK4CA 0 | PIK4CB 0 | PLK1 = 0 | PRKAA1 = 0 | PRKCA 0 | PTK2 = 0 | PTK2B 0 | RAF1 = 0 | [1] 0 | RET 0 | [2] 0 | RIOK1 = 0 | RIPK1 = 0 | RIPK2 = 0 | ROR2 = 0 | RPS6KA1 = 0 | SPHK1 = 0 | SRC 0 | STK24 = 0

O=c1[nH]c2ccccc2n1C1CCN(CCCC(c2ccc(F)cc2)c2ccc(F)cc2)CC1 [Pimozide] (2.5 µM)
inactive: PDPK1 = 0 | PIK4CA 0 | PIK4CB 0 | PLK1 = 0 | PRKAA1 = 0 | PRKCA 0 | PTK2 = 0 | PTK2B 0 | RAF1 = 0 | [1] 0 | RET 0 | [2] 0 | RIOK1 = 0 | RIPK1 = 0 | RIPK2 = 0 | ROR2 = 0 | RPS6KA1 = 0 | SPHK1 = 0 | SRC 0 | STK24 = 0

C=C[C@H]1CN2CC[C@]3(C(=O)Nc4ccccc43)[C@@H]2C[C@@H]1/C(=C\OC)C(=O)OC [Corynoxeine] (2 µM)
inactive: PDPK1 = 0 | PIK4CA 0 | PIK4CB 0 | PLK1 = 0 | PRKAA1 = 0 | PRKCA 0 | PTK2 = 0 | PTK2B 0 | RAF1 = 0 | [1] 0 | RET 0 | [2] 0 | RIOK1 = 0 | RIPK1 = 0 | RIPK2 = 0 | ROR2 = 0 | RPS6KA1 = 0 | SPHK1 = 0 | SRC 0 | STK24 = 0
